Compound in this experiment: CN[C@@H]1C[C@H]2O[C@@](C)([C@@H]1OC)n1c3ccccc3c3c4c(c5c6ccccc6n2c5c31)C(=O)NC4 [staurosporine]
In words: log2 fold change of tryptic peptide abundance, ligand vs vehicle (limited proteolysis) (log2 ratio); higher = more trypsin-susceptible (destabilized). Particulars: ligand concentration: 20 uM; sample: K562 cleared lysate; digestion: 4 min, 22 C (HT-PELSA RT4min, Orbitrap Astral).

Sequences of proteins named here, by UniProt entry; tags and fusion partners are left off. A change or cut given only in a name is not applied to a line headed by its entry.
UniProt Q96HC4: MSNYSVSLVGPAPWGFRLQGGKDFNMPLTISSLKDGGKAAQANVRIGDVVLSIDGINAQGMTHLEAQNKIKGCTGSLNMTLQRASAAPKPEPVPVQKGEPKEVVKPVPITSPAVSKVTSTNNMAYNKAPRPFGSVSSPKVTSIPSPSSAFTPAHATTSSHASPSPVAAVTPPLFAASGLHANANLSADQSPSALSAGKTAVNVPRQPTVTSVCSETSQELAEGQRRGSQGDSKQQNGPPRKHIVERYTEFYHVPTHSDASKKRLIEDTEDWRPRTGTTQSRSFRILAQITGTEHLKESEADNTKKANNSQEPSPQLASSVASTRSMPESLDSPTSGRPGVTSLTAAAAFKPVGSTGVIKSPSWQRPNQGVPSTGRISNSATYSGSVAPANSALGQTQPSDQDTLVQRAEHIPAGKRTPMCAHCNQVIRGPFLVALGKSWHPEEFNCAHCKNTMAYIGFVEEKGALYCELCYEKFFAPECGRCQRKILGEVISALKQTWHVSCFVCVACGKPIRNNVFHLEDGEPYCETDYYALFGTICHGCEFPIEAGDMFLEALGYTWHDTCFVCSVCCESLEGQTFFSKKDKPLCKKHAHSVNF
UniProt Q96T66: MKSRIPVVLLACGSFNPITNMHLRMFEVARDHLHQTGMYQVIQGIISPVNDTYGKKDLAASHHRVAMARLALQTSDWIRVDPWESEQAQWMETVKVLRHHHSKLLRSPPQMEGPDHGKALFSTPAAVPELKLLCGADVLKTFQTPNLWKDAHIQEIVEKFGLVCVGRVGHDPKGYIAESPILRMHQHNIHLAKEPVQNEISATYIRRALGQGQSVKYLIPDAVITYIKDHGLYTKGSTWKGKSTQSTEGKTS
UniProt Q96S66: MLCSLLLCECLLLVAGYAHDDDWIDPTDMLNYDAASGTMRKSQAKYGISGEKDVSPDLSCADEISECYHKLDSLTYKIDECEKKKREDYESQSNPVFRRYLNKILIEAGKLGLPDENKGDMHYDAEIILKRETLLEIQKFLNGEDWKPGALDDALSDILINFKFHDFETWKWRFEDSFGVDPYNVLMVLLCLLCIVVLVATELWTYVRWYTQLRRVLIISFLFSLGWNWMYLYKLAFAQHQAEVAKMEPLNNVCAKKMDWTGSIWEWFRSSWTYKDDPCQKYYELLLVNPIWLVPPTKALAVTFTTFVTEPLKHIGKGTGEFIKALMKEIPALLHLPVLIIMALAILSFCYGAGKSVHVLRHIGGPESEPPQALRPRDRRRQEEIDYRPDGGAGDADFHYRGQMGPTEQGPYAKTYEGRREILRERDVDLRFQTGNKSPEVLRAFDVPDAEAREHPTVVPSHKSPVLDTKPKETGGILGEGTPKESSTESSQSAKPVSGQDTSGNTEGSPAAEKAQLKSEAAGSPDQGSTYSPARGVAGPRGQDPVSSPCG
UniProt Q96H55, whole entry: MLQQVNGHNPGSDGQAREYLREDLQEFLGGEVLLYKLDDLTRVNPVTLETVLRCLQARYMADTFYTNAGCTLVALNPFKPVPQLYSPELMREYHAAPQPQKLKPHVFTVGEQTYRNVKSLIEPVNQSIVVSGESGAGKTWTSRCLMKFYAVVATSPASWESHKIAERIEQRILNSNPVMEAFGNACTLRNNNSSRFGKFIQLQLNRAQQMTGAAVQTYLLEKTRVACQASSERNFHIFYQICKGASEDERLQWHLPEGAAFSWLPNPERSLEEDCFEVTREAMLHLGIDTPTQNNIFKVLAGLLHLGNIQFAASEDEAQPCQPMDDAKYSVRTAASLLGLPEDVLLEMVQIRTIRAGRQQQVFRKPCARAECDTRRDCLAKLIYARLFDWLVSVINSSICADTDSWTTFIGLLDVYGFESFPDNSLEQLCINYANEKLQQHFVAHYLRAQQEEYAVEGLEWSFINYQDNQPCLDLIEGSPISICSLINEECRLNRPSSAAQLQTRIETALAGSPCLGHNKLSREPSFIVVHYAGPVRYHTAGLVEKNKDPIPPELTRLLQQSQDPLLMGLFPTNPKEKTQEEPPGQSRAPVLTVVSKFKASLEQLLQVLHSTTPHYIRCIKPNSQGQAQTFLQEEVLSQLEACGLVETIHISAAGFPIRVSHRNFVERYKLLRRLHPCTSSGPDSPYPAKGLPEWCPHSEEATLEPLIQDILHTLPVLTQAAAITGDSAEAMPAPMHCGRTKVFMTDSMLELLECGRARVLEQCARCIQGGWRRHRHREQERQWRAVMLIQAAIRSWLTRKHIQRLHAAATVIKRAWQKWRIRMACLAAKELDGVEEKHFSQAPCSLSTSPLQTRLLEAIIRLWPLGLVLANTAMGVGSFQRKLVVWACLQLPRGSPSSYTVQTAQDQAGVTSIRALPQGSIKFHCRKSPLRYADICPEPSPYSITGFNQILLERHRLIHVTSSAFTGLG
UniProt Q96ME1: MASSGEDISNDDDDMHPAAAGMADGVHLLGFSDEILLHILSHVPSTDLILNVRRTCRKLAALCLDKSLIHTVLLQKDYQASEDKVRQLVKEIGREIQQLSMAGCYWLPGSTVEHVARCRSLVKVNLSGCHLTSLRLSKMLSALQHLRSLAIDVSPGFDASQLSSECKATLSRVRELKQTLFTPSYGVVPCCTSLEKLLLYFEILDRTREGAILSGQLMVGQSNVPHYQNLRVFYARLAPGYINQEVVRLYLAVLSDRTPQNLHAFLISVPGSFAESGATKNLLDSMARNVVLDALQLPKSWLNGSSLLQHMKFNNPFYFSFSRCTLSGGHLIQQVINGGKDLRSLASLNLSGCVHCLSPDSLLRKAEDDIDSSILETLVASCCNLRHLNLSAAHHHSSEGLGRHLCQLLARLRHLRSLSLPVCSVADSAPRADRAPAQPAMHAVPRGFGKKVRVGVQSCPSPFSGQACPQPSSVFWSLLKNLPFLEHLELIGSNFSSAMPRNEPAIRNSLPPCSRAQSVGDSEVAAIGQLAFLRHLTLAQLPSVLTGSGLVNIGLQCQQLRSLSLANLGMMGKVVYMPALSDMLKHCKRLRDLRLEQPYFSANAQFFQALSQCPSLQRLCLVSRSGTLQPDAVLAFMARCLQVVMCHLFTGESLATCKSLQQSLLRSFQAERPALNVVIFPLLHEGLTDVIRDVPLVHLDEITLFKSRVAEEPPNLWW
UniProt Q96GX9: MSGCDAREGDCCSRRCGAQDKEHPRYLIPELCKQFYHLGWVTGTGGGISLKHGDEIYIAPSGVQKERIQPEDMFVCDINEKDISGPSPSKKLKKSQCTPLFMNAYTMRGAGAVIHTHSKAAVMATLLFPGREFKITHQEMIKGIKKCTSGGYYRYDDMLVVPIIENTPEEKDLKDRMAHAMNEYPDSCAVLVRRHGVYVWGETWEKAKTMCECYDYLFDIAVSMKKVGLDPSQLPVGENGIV
UniProt Q96QE5: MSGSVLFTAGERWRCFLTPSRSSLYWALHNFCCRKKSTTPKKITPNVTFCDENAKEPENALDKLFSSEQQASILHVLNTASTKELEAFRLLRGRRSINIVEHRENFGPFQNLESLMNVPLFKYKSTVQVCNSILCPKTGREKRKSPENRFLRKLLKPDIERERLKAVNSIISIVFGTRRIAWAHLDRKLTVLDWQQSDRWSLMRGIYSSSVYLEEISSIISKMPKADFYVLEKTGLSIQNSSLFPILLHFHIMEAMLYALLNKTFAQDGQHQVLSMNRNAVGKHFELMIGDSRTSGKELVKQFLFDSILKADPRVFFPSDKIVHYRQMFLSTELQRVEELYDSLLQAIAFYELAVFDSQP
UniProt Q96T23: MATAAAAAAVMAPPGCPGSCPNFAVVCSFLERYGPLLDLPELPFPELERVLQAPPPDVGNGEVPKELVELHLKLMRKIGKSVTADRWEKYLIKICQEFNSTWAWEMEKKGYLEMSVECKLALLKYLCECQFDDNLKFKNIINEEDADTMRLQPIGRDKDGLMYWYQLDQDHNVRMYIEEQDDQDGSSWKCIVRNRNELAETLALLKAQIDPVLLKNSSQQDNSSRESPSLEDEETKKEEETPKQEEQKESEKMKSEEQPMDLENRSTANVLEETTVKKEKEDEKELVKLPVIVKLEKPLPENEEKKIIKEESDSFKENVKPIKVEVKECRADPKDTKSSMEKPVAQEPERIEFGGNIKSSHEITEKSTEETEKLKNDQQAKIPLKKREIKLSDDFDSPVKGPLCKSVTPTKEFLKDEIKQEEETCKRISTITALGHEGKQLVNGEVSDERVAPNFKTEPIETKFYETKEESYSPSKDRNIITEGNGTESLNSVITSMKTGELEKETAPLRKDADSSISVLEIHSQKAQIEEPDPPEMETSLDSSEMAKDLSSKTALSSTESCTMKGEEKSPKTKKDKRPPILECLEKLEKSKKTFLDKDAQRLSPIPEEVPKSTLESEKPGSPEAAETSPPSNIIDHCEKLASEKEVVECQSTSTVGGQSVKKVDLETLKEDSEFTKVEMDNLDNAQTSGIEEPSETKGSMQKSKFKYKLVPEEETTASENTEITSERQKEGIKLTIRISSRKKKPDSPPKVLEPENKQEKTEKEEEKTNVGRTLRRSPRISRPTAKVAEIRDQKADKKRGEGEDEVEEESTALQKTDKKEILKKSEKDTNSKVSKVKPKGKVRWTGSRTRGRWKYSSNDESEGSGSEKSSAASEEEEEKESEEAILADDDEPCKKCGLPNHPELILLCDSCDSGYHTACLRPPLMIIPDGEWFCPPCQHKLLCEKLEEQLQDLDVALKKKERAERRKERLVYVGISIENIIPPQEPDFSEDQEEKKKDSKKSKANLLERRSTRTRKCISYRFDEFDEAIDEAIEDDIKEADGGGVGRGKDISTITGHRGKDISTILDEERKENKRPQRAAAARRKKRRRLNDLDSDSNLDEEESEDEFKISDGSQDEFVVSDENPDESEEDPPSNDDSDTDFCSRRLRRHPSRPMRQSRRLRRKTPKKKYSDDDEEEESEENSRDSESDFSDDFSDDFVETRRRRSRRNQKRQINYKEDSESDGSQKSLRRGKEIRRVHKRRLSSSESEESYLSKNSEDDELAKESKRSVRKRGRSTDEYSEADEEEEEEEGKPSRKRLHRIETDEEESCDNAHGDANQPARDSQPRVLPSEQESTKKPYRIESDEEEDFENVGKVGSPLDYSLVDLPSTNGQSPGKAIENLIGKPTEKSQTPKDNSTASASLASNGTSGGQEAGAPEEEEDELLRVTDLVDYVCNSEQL
UniProt Q96JB2: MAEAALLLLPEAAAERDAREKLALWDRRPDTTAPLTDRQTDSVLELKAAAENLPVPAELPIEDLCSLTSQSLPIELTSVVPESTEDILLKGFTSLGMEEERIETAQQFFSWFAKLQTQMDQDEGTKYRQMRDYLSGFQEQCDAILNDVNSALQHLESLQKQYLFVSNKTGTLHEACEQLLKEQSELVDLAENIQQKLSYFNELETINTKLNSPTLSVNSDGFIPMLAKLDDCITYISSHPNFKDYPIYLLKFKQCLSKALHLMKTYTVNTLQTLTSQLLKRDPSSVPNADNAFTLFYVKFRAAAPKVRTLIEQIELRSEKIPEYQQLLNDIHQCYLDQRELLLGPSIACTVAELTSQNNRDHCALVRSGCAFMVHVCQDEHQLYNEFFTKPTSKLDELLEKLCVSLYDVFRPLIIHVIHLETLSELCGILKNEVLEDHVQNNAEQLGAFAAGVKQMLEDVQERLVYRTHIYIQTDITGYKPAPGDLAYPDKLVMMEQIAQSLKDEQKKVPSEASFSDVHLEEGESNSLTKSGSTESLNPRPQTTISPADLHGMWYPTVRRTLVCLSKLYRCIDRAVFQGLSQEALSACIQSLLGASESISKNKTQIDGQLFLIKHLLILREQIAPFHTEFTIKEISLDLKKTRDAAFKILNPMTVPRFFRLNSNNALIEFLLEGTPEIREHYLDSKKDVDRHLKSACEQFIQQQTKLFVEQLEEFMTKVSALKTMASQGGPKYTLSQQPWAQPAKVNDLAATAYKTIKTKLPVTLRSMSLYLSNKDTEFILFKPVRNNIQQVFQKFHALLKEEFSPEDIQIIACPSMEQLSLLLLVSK
UniProt Q96LW1: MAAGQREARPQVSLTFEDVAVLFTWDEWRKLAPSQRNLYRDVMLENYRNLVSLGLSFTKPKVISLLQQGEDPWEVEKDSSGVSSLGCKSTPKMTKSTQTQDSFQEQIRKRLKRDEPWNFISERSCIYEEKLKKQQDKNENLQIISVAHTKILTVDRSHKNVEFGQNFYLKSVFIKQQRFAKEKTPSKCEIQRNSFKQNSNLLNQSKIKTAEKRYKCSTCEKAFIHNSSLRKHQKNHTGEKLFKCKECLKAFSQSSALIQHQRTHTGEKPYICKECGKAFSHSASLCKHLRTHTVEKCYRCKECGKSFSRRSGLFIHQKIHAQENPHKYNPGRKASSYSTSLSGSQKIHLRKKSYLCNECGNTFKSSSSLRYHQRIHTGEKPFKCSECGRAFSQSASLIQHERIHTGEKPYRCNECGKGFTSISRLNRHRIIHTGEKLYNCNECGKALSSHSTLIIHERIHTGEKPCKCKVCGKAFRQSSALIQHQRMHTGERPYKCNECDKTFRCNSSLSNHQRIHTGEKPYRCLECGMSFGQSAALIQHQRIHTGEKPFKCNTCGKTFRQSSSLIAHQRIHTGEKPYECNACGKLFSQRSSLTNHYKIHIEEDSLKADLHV

Some of the results follow. Small differences around the control level are noise.

On to “TOE1 (peptide sequence: TLFLELIR, peptide start residue: 175) (UniProt Q96GM8)”, for which the log2 fold change was -0.126.
Take “UHRF2 (peptide sequence: VQVSEAGVHRPHVGGIHGR, peptide start residue: 463) (UniProt Q96PU4)”: the log2 fold change was -0.538.
The result for “CDK5RAP3 (peptide sequence: WQSLVLTIR, peptide start residue: 30) (UniProt Q96JB5)” reads 0.409; that for “UniProt Q96HJ3 (peptide sequence: ALEELNQQLEK, peptide start residue: 164)”, -0.355; that for “UniProt Q96MS0 (peptide sequence: GLVPGLLYR, peptide start residue: 834)”, 0.0985.
On to “IWS1 (peptide sequence: KLTLLPAVVMHLK, peptide start residue: 587) (UniProt Q96ST2)”, for which the log2 fold change was 0.217.
The result for “RILP (peptide sequence: FSREEFEQILQERNELK, peptide start residue: 243) (UniProt Q96NA2)” reads -0.527; that for “PRRC1 (peptide sequence: GQDEASAGGIWGFIK, peptide start residue: 204) (UniProt Q96M27)”, -0.109.
The result for “PSMD1 (peptide sequence: KKEPEPNFQLLDNPAR, peptide start residue: 868) (UniProt Q99460)” reads 0.48; that for “PDLIM5 (peptide sequence: GPFLVALGK, peptide start residue: 429) (UniProt Q96HC4)”, 0.139; that for “DHRS1 (peptide sequence: EEVLQDPVLK, peptide start residue: 208) (UniProt Q96LJ7)”, -0.553.
As for “UniProt Q96JM3 (peptide sequence: KHALFPELPK, peptide start residue: 556)”, the log2 fold change came to 0.335.
The result for “SPATA33 (peptide sequence: HPPPAASLEEKPDVK, peptide start residue: 61) (UniProt Q96N06)” reads -0.517.
To “NSUN5 (peptide sequence: QGFSYQGR, peptide start residue: 157) (UniProt Q96P11)” belongs -0.649; to “NMNAT3 (peptide sequence: FGLVCVGR, peptide start residue: 160) (UniProt Q96T66)”, -0.158; to “CLCC1 (peptide sequence: EHPTVVPSHK, peptide start residue: 454) (UniProt Q96S66)”, 0.453.
The result for “MCCC1 (peptide sequence: SEQEFQEQLESARR, peptide start residue: 220) (UniProt Q96RQ3)” reads 0.196.
As to “MYO19 (peptide sequence: AVMLIQAAIR, peptide start residue: 786) (UniProt Q96H55)”, the log2 fold change was 0.466.
To “FBXL18 (peptide sequence: CTLSGGHLIQQVINGGK, peptide start residue: 324) (UniProt Q96ME1)” belongs 0.417; to “MMS19 (peptide sequence: ETLPLLLQHLWQVNR, peptide start residue: 571) (UniProt Q96T76)”, -0.125; to “CMTM3 (peptide sequence: PGPAVPGLR, peptide start residue: 20) (UniProt Q96MX0)”, 0.0729.
For “POM121 (peptide sequence: VVPAYVPTPIHPIFGGATHSAFGLK, peptide start residue: 1017) (UniProt Q96HA1)”, the log2 fold change is -0.232.
As to “HEXIM2 (peptide sequence: DYLELEKR, peptide start residue: 216) (UniProt Q96MH2)”, the log2 fold change is -0.613.
The result for “C8orf76 (peptide sequence: SGPPASYCAK, peptide start residue: 25) (UniProt Q96K31)” reads 0.0204; that for “PBK (peptide sequence: VIELFSVCTNEDPK, peptide start residue: 293) (UniProt Q96KB5)”, -0.625.
To “APIP (peptide sequence: HGDEIYIAPSGVQK, peptide start residue: 52) (UniProt Q96GX9)” belongs 0.145; to “FMNL2 (peptide sequence: RVQESTQVLR, peptide start residue: 113) (UniProt Q96PY5)”, 0.876; to “PRIMPOL (peptide sequence: LKQIEER, peptide start residue: 9) (UniProt Q96LW4)”, -0.391.
Turning to “UniProt Q96QE5 (peptide sequence: SINIVEHR, peptide start residue: 96)”, the log2 fold change is -0.188.
“TRPM7 (peptide sequence: AALIPDWLQDRPSNR, peptide start residue: 1515) (UniProt Q96QT4)”: the log2 fold change turned out to be 0.307.
To “TCF12 (peptide sequence: RRPLHDSAALDPLQAK, peptide start residue: 166) (UniProt Q99081)” belongs -0.0949; to “RSF1 (peptide sequence: LEKPLPENEEK, peptide start residue: 295) (UniProt Q96T23)”, 0.383; to “EP400 (peptide sequence: ITAQQITTPGAQQK, peptide start residue: 2995) (UniProt Q96L91)”, -0.385.
The result for “COG3 (peptide sequence: EQSELVDLAENIQQK, peptide start residue: 182) (UniProt Q96JB2)” reads 0.646.
The result for “PLEKHF1 (peptide sequence: IAAVESCFGASGQPLALPGR, peptide start residue: 15) (UniProt Q96S99)” reads 0.152; that for “PPP1R9B (peptide sequence: EIEFLKK, peptide start residue: 769) (UniProt Q96SB3)”, -0.506.
Regarding “UniProt Q96LW1 (peptide sequence: NLVSLGLSFTKPK, peptide start residue: 49)”, the log2 fold change is -0.144.
